Laboratory results: publication doi:10.1101/2024.04.22.590536 (bioRxiv, 2024)
No constants are given. Whether binding was seen depends on the method and setting. Binding can be weak; no strength is given. Where a sequence is shown, tags or fusion partners need not be part of it.

T1: Enp2 fused to the GAL4 DNA binding domain (S. cerevisiae) (UniProt P48234)
T1 sequence: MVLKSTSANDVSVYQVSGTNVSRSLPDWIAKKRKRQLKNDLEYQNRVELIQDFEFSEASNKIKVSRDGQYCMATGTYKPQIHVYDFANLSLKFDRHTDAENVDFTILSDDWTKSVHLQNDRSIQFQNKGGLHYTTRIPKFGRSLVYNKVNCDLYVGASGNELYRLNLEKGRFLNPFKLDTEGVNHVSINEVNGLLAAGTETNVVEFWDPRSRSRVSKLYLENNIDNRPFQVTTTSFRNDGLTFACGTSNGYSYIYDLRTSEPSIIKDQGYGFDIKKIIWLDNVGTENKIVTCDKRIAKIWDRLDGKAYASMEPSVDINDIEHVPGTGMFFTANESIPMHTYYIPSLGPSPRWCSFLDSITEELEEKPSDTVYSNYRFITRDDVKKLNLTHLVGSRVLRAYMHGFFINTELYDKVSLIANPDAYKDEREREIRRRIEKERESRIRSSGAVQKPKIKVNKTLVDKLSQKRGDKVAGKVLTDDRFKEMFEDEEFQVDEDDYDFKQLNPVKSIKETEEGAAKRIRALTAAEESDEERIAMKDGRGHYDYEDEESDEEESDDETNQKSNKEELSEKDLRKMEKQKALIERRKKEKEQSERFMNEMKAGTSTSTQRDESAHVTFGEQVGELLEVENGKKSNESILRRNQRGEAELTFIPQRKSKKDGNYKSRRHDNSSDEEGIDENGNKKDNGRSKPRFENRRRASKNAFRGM

B1: Stm1 fused to the GAL4 activation domain (protein, UniProt P39015 1-273)
chain: MSNPFDLLGNDVEDADVVVLPPKEIVKSNTSSKKADVPPPSADPSKARKNRPRPSGNEGAIRDKTAGRRNNRSKDVTDSATTKKSNTRRATDRHSRTGKTDTKKKVNQGWGDDKKELSAEKEAQADAAAEIAEDAAEAEDAGKPKTAQLSLQDYLNQQANNQFNKVPEAKKVELDAERIETAEKEAYVPATKVKNVKSKQLKTKEYLEFDATFVESNTRKNFGDRNNNSRNNFNNRRGGRGARKGNNTANATNSANTVQKNRNIDVSNLPSLA

Tests used:
[1] = molecular target: T1, Enp2 fused to the GAL4 DNA binding domain (S. cerevisiae); test: two-hybrid
[2] = molecular target: ifh-7 fused to the GAL4 DNA binding domain (S. cerevisiae); test: two-hybrid

Molecule	binding [1]	binding [2]
stm1ΔC fused to the GAL4 activation domain (S. cerevisiae) (domain or fragment)	binds	
B1		binds
